At least one compound was matched to its structure with a doubt left.
Tests used:
[1] = system: experimental dry eye (EDE) model; assay: apical corneal desquamation in experimental dry eye (EDE) model, topical treatment; type: in vivo; details: mice, 5 days EDE
[2] = Stability of doxycycline in phase 3 formulation at 5° C. and 25° C. storage; type: physicochemical
[3] = phase 3 formulation, Label Claim 0.0025% w/w, 5° C.
[4] = phase 3 formulation, Label Claim 0.0025% w/w, 25° C.
[5] = phase 3 formulation, Label Claim 0.0050% w/w, 5° C.
[6] = phase 3 formulation, Label Claim 0.0050% w/w, 25° C.
[7] = phase 3 formulation, Label Claim 0.0250% w/w, 5° C.
[8] = phase 3 formulation, Label Claim 0.0250% w/w, 25° C.

C[C@H]1c2cccc(O)c2C(=O)C2=C(O)[C@]3(O)C(=O)C(C(N)=O)=C(O)[C@@H](N(C)C)[C@@H]3[C@@H](O)[C@@H]21 [doxycycline]
desquamation measured by cell density ([1]; topical 0.0025% (FIG. 1C)): some effectiveness | level of desquamation / prevention of corneal damage ([1]; topical 0.0025%, compared to vehicle): ineffective in preventing corneal damage due to EDE | level of desquamation (apical cornea) ([1]; topical 0.025%, compared to vehicle): significantly lower compared to vehicle treatment | level of 4-epimer ([2]; 0.025% doxycycline in phase 3 formulation, 6 months at 5° C.): 3.99 % LC | level of 6-epimer ([2]; 0.025% doxycycline in phase 3 formulation, over 6 months at 5° C.): did not show a significant increase with time | rate of decrease in doxycycline content ([2]; phase 3 formulation, 0.025% strength, 5° C.): 0.641 % LC/month | Doxycycline Content (% LC), T = 0 ([2]; phase 3 formulation, Label Claim 0.0025% w/w): 97.5 % LC | Doxycycline Content (% LC), 0.5 m [2, 3]: 96.0 % LC | Doxycycline Content (% LC), 1 m [2, 3]: 97.3 % LC | Doxycycline Content (% LC), 2 m [2, 3]: 98.7 % LC | Doxycycline Content (% LC), 3 m [2, 3]: 96.6 % LC | Doxycycline Content (% LC), 6 m [2, 3]: 94.6 % LC | Slope of linear regression [2, 3]: −0.394 % doxycycline content/month | Doxycycline Content (% LC), 0.5 m [2, 4]: 92.0 % LC | Doxycycline Content (% LC), 1 m [2, 4]: 90.6 % LC | Doxycycline Content (% LC), 2 m [2, 4]: 88.9 % LC | Doxycycline Content (% LC), 3 m [2, 4]: 84.7 % LC | Doxycycline Content (% LC), 6 m [2, 4]: 75.4 % LC | Doxycycline Content (% LC), T = 0 ([2]; phase 3 formulation, Label Claim 0.0050% w/w): 102.5 % LC | Doxycycline Content (% LC), 0.5 m [2, 5]: 100.0 % LC | Doxycycline Content (% LC), 1 m [2, 5]: 101.2 % LC | Doxycycline Content (% LC), 2 m [2, 5]: 101.7 % LC | Doxycycline Content (% LC), 3 m [2, 5]: 99.6 % LC | Doxycycline Content (% LC), 6 m [2, 5]: 99.3 % LC | Slope of linear regression [2, 5]: −0.408 % doxycycline content/month | Doxycycline Content (% LC), 0.5 m [2, 6]: 98.0 % LC | Doxycycline Content (% LC), 1 m [2, 6]: 95.0 % LC | Doxycycline Content (% LC), 2 m [2, 6]: 91.5 % LC | Doxycycline Content (% LC), 3 m [2, 6]: 86.1 % LC | Doxycycline Content (% LC), 6 m [2, 6]: 77.6 % LC | Doxycycline Content (% LC), T = 0 ([2]; phase 3 formulation, Label Claim 0.0250% w/w): 102.9 % LC | Doxycycline Content (% LC), 0.5 m [2, 7]: 101.6 % LC | Doxycycline Content (% LC), 1 m [2, 7]: 102.0 % LC | Doxycycline Content (% LC), 2 m [2, 7]: 102.1 % LC | Doxycycline Content (% LC), 3 m [2, 7]: 101.7 % LC | Doxycycline Content (% LC), 6 m [2, 7]: 98.4 % LC | Slope of linear regression [2, 7]: −0.641 % doxycycline content/month | Doxycycline Content (% LC), 0.5 m [2, 8]: 98.6 % LC | Doxycycline Content (% LC), 1 m [2, 8]: 96.7 % LC | Doxycycline Content (% LC), 2 m [2, 8]: 92.5 % LC | Doxycycline Content (% LC), 3 m [2, 8]: 86.5 % LC | Doxycycline Content (% LC), 6 m [2, 8]: 77.4 % LC

From patent publication US20120028929A1, “TETRACYCLINE STABILIZING FORMULATIONS” (ALACRITY BIOSCIENCE, INC., priority 2008, published 2012)
